Patent US9539327B2, “Small molecule cancer treatments that cause necrosis in cancer cells but do not affect normal cells” (THE RESEARCH FOUNDATION FOR THE STATE UNIVERSITY OF NEW YORK, priority 2007, dated 2017)
Not every detail of the peptide structures is certain; ends, links or a residue may be inferred. Ends that are not written are not given here.

Amino acid sequences for entries named in this document (tags omitted).
UniProt Q00987, whole entry: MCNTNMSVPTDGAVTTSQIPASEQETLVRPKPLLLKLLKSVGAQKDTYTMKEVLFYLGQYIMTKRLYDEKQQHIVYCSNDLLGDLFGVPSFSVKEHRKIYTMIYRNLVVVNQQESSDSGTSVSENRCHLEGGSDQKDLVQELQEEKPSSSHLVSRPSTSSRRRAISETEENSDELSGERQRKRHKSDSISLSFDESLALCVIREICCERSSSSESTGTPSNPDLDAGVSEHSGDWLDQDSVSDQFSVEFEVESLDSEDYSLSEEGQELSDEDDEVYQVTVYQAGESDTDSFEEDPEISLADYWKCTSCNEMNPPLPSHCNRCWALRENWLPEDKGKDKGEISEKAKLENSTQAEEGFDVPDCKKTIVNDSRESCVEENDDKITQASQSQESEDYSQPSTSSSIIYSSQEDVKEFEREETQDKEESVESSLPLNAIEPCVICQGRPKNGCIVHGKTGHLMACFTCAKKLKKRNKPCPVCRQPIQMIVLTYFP

Molecular target: T1, HDM-2 (Homo sapiens, UniProt Q00987)
T1 construct: green fluorescent protein (GFP) (N); (PrecisionShuttle vector); host or cells: MCF-10-2A normal human breast epithelial cells
Experiment: Confocal microscopy co-localization with HDM-2 in cancer cell membrane
Assay type: cell-based
Conditions: cancer cells treated at 125 ug/ml or lower, like 25 ug/ml

Which “co-localization with HDM-2 (red and green fluorescence giving yellow)” value does the source give for “PPLSQETFSDLWKLLKKWKMRRNQFWVKVQRG [PNC-27]” here?
Its value is “co-localizes with HDM-2 in the cancer cell membrane”.
